Data as given in patent publication US9439909B2, “Compositions and methods for sensitizing a neoplastic cell to radiation” (The Broad Institute, Inc., priority 2013, dated 2016).
For at least one compound, name, drawing or mass did not settle the structure.

Key:
NRF2 activity = assay: hNQO1-ARE-luc luciferase reporter assay in LC-1/SQSF cells; format: cell-based, human; settings: 24 hours
Experimental: LC-1/SQSF, hNQO1-ARE-luc cells were produced as follows. hQR41-ARE sequence (19) and firefly luciferase-PEST sequence (Promega, WI) was cloned into plenti6/BLOCK-iT-DEST lentivirus backbone (Invitrogen, NY) at the restriction sites of NcoI and Hind III. The engineered region was sequence verified and matched 100% of the expected sequences. The plasmid was stably infected to the LC-1/SQSF cell line, selected and maintained in 5 μg/ml Blasticidin in the recommended media.

NRF2 protein = assay: Immunoblot of NRF2 protein level in LC-1/SQSF cells; format: cell-based, human; settings: 24 hours
Experimental: Anti-NRF2 antibody (ab31163) was from Abcam (Cambridge, Mass.) (17). NVP-BKM120 and TGX-221 was from Selleck (Houston, Tex.). LY 294002 was from Cell Signaling Technology (Beverly, Mass.).
Construction of the retroviral expression vector of short hairpin RNA (shRNA) was carried out as described (18). The shRNA-targeted sequences were as follows: NRF2-1 shRNA, […] (SEQ ID NO: 1); NRF2-2 shRNA, […] (SEQ ID NO: 2). The control vector contains nontargeting shRNA sequence. The entry vectors were recombined with pLKO-Tet-ON-puro by LR reactions (Invitrogen, Carlsbad, Calif.), in accordance with the manufacturer's instructions. After infection (multiplicity of infection >1), cells were selected and maintained in the presence of 1 μg/ml puromycin.

O=c1cc(N2CCOCC2)oc2c(-c3ccccc3)cccc12 [LY 294002] was tested, and the “decrement in NRF2 activity (luciferase activity)” value (NRF2 activity) was “significant decrement in NRF2 activity” and the “decrement in NRF2 protein level” value (NRF2 protein) was “significant decrement in NRF2 protein level”.
